According to the NIST ThermoML archive (doi:10.1016/j.tca.2018.08.015):
Numbers after ± are expanded uncertainties.

Assay: molar heat capacity at constant pressure
Details: 101.33 kPa, Liquid, DSC

For `O=C(c1ccccc1)c1ccccc1` [benzophenone], the “molar heat capacity at constant pressure” value (245 K) was 265.3 ± 13 J/K/mol, the “molar heat capacity at constant pressure” value (255 K) was 269.9 ± 14 J/K/mol and the “molar heat capacity at constant pressure” value (265 K) was 274.5 ± 14 J/K/mol. For the same compound, the “molar heat capacity at constant pressure” value (275 K) was 279 ± 14 J/K/mol, the “molar heat capacity at constant pressure” value (285 K) was 283.6 ± 14 J/K/mol and the “molar heat capacity at constant pressure” value (295 K) was 288.1 ± 14 J/K/mol. The “molar heat capacity at constant pressure” value (305 K) was 292.7 ± 15 J/K/mol, the “molar heat capacity at constant pressure” value (315 K) was 297.3 ± 15 J/K/mol and the “molar heat capacity at constant pressure” value (325 K) was 301.8 ± 15 J/K/mol. For the same compound, the “molar heat capacity at constant pressure” value (335 K) was 306.4 ± 15 J/K/mol and the “molar heat capacity at constant pressure” value (345 K) was 311 ± 16 J/K/mol.
